Key:
[1] = system: hTERT-MSC and HEK293 cells; experiment: Transient expression of different GLP-1 constructs (active GLP-1); format: cell-based, human; settings: transient transfection; both in hTERT-MSC and in HEK293 cells
hTERT-MSC cells = experiment: GLP-1 expression of stably transfected hTERT-MSC cell clones; format: cell-based, human; settings: hTERT-MSC cell clones stably expressing GLP-1

Substance | active GLP-1 level after transient expression [1] | active GLP per 10^6 cells and hour (hTERT-MSC cells) [pmol]
GLP1(7-37)-IP2-GLP1(7-37) [#217 GLP1(7-37)-IP2-GLP1(7-37)] | enormous gain in expression | 2.7
GLP-1 (7-37) [#103 GLP1(7-37)] | only marginal active GLP-1 level | 0.4

Reference: patent US20120263794A1, “TREATMENT OF EYE DISEASES USING ENCAPSULATED CELLS ENCODING AND SECRETING A NEUROPROTECTIVE FACTOR AND/OR AN ANTI-ANGIOGENIC FACTOR” (BIOCOMPATIBLE UK LTD., priority 2009, published 2012)
